Data on 1 substance can be found in patent publication US20060252918A1, “Use of hepatitis virus (hcv) p7 protein” (priority 2002, published 2006).

The chains behind the UniProt entries cited, without tags or fusion partners. Residues count along the entry.
UniProt O92972, residues 747-809: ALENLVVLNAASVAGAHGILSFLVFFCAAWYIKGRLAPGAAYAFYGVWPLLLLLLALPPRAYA

These are yes or no findings as the source states them, for the method shown. Some entries that bind do so weakly or less than the wild type.

In assay [1] the target is GSTp7 fusion protein (hepatitis C virus 1B, J4 isolate) (UniProt O92972). Nature of the assay: self-association, electron microscopy.
Assay [2] has the same target. Nature of the assay: self-association, transmission electron microscopy of GSTp7 in liposomes (FIG. 2).

With “GSTp7 fusion protein (from UniProt O92972 747-809)”, the binding entry in assay [1] and in assay [2] was “binds” throughout.
